Our source for the AXL domain specificity values is US20200397913A1 (GENMAB A/S, priority 2015, published 2020).

Sequences and labels used below:
B1: IgG1-AXL-733: human IgG1,κ anti-AXL antibody, VH SEQ ID NO:34, VL SEQ ID NO:35; FN1 domain binding (antibody, V domains shown)
VH: QVQLVESGGGVVQPGRSLRLSCAASGFSFSTYAMHWVRQAPGKGLEWVAVISYDGDNKYSADSVKGRFTISRDNSKNTLYLQMNSLRAEDTAVYYCARGRKLGIDAFDIWGQGTMVTVSS
VL: AIQLTQSPSSLSASVGDRVTITCRASQGISSALAWYQQKPGKAPKLLIYDASSLESGVPSRFSGSGSGTDFTLTISGLQPEDFATYYCQQFNSYPFTFGPGTKVDIK
modifications: homo sapiens
B2: IgG1-AXL-183: human IgG1,κ anti-AXL antibody, VH SEQ ID NO:16, VL SEQ ID NO:18; FN1 domain binding (antibody, V domains shown)
VH: QVQLQQWGAGLLKPSETLSLTCAVYGGSFSGYYWSWIRQPPGKGLEWIGEINQSGSTNYNPSLKSRVTISVDTSKNQFSLKLSSVTAADTSVYYCASGNWDHFFDYWGQGTLVTVSS
VL: DIQMTQSPSSVSASVGDRVTITCRASQGISSWLAWYQHKPGKAPKLLIYATSSLQSGVTSRFSGSGSGTDFTLTISSLQPEDFATYYCQQAKSFPWTFGQGTKVEIK
modifications: homo sapiens
B3: IgG1-AXL-726: human IgG1,κ anti-AXL antibody, VH SEQ ID NO:31, VL SEQ ID NO:33; FN2 domain binding (antibody, V domains shown)
VH: QVQLQQWGAGLLKPSETLSLTCAIDGGSFSGYYWSWIRQPPGKGLEWIGEISHSGRTNYNPSLKSRVTISIDTSKNQFSLKLSSVAAADTAVYYCARFITMIRGAIITHFDYWGQGALVTVSS
VL: DIQMTQSPSSLSASVGDRVTITCRASQGISSWLAWYQQKPEKAPKSLIYAASSLQSGVPSRFSGSGSGTDFTLTISSLQPEDFATYYCQQYHSYPYTFGQGTKLEIK
modifications: homo sapiens
B4: IgG1-AXL-148: human IgG1,κ anti-AXL antibody, VH SEQ ID NO:5, VL SEQ ID NO:6; Ig2 domain binding (antibody, V domains shown)
VH: EVQLLESGGGLVQPGGSLRLSCAASGFTFSSYAMTWVRQAPGKGLEWVSAISISGGSTFYADSVKGRFTISRDNSKNTLYLQMNSLRAEDTAVYYCRGYSGYVYDAFDFWGQGTMVTVSS
VL: DIQMTQSPSSLSASVGDRVTITCRASQGISNWLAWYQQKPEKAPKSLIYAASSLQSGVPSRFSGSGSGTDFTLTISSLQPEDFATYYCQQYNSYPLTFGGGTKVEIK
modifications: homo sapiens

In the data set the test system is human-mouse AXL chimeras (hsAXL, hsAXL-mmECD, -mmIg1, -mmIg2, -mmFN1, -mmFN2). The data set is classed as binding. The following applies: 1 μg/mL antibody.
Regarding B1, the AXL domain specificity entry is “Fn1”. Under B2 stands “Fn1”; under B3, “Fn2”. As to B4, the AXL domain specificity result is recorded as “Ig2”.
